Experimental data: paper PMC9519968
These are yes or no findings as the source states them, for the method shown. Some entries that bind do so weakly or less than the wild type.

Sequences of proteins named here, by UniProt entry; tags and fusion partners are left off.
UniProt Q9WTM5: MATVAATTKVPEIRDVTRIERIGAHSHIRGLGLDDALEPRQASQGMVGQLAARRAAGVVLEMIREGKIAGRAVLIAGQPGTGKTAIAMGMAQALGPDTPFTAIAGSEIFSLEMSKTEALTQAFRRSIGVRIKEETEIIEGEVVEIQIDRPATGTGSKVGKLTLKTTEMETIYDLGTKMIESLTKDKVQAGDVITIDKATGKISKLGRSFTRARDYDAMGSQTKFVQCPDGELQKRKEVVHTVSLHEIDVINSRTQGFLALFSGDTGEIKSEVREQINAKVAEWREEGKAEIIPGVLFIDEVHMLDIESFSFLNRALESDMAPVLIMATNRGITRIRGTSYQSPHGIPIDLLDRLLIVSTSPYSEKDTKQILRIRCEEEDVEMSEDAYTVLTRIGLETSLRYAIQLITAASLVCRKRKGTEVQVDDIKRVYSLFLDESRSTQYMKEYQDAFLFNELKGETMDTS
UniProt P60122: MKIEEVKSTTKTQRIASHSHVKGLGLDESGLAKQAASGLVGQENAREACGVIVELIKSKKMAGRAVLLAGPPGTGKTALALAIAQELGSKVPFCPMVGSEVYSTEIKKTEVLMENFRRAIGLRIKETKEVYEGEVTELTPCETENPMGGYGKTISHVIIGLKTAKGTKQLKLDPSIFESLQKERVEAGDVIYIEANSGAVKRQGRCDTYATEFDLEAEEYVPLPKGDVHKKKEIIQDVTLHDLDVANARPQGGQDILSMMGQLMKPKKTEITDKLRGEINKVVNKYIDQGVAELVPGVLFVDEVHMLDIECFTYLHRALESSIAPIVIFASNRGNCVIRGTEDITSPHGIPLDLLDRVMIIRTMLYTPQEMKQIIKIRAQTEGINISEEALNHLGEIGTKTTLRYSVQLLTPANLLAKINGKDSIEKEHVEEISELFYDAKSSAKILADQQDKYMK

Target: recombinant His-RUVBL2 (UniProt Q9WTM5)
Assay: co-purification by the His tag of one subunit (Ni-NTA) + SEC; RUVBL1 (no His-tag) and His-RUVBL2 co-expressed in E. coli; Ni-NTA agarose, then Superdex S200; fractions of about 300-600 kDa collected

Which binding does the source give for “recombinant RUVBL1 (no His-tag) (from UniProt P60122 1-456)” here?
Its binding is “binds”.
